The supplement of paper PMC12067093, “Discovery and optimisation of a covalent ligand for TRIM25 and its application to targeted protein ubiquitination” (Chemical Science, 2025)
Some of the results follow.
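Also: competitive chemoproteomic profiling in live THP-1 cells with an iodoacetamide desthiobiotin (IA-DTB) probe, comparing probe-labelled peptide intensities in compound-treated cells against DMSO-treated controls.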

Protein sequences, listed by entry. Tags and fused reporters are not part of them. Lines headed by an entry give the natural chain unless they say otherwise; changes in a name come on top.
UniProt O00244: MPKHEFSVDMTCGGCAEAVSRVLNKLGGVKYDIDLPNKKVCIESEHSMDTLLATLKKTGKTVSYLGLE
UniProt P25705: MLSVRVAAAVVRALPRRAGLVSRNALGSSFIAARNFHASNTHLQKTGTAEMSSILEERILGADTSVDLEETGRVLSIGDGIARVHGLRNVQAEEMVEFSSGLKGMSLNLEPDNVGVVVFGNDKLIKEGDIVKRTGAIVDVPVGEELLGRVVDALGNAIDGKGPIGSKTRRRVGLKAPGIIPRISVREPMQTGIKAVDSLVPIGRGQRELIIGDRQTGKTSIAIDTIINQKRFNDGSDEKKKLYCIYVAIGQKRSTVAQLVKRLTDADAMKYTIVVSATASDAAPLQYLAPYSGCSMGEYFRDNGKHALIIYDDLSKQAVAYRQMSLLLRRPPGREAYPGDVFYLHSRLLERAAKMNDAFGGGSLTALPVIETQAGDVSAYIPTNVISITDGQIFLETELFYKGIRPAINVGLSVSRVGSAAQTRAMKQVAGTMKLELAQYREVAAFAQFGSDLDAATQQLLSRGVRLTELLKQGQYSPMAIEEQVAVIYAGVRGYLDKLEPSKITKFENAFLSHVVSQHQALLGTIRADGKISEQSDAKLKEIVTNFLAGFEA
UniProt Q12797: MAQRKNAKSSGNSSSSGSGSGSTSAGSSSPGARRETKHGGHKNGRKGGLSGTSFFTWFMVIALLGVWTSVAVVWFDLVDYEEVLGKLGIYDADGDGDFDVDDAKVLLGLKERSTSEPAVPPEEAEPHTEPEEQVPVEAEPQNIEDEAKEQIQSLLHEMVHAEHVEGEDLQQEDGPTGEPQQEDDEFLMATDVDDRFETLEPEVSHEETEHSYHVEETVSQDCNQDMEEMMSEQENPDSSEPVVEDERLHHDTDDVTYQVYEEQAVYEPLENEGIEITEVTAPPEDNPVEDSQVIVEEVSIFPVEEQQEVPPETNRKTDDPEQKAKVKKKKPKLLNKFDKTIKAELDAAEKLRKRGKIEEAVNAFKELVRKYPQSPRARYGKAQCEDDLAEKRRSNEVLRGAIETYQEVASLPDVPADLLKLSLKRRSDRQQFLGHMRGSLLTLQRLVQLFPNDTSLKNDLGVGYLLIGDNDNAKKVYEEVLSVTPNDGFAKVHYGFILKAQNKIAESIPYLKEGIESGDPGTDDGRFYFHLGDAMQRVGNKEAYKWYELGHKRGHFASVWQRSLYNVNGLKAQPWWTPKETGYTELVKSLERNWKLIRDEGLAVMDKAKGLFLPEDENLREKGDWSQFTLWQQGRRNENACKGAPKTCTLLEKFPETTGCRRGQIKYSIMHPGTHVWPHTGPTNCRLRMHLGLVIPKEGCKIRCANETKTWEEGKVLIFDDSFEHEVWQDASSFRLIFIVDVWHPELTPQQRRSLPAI
UniProt Q13315: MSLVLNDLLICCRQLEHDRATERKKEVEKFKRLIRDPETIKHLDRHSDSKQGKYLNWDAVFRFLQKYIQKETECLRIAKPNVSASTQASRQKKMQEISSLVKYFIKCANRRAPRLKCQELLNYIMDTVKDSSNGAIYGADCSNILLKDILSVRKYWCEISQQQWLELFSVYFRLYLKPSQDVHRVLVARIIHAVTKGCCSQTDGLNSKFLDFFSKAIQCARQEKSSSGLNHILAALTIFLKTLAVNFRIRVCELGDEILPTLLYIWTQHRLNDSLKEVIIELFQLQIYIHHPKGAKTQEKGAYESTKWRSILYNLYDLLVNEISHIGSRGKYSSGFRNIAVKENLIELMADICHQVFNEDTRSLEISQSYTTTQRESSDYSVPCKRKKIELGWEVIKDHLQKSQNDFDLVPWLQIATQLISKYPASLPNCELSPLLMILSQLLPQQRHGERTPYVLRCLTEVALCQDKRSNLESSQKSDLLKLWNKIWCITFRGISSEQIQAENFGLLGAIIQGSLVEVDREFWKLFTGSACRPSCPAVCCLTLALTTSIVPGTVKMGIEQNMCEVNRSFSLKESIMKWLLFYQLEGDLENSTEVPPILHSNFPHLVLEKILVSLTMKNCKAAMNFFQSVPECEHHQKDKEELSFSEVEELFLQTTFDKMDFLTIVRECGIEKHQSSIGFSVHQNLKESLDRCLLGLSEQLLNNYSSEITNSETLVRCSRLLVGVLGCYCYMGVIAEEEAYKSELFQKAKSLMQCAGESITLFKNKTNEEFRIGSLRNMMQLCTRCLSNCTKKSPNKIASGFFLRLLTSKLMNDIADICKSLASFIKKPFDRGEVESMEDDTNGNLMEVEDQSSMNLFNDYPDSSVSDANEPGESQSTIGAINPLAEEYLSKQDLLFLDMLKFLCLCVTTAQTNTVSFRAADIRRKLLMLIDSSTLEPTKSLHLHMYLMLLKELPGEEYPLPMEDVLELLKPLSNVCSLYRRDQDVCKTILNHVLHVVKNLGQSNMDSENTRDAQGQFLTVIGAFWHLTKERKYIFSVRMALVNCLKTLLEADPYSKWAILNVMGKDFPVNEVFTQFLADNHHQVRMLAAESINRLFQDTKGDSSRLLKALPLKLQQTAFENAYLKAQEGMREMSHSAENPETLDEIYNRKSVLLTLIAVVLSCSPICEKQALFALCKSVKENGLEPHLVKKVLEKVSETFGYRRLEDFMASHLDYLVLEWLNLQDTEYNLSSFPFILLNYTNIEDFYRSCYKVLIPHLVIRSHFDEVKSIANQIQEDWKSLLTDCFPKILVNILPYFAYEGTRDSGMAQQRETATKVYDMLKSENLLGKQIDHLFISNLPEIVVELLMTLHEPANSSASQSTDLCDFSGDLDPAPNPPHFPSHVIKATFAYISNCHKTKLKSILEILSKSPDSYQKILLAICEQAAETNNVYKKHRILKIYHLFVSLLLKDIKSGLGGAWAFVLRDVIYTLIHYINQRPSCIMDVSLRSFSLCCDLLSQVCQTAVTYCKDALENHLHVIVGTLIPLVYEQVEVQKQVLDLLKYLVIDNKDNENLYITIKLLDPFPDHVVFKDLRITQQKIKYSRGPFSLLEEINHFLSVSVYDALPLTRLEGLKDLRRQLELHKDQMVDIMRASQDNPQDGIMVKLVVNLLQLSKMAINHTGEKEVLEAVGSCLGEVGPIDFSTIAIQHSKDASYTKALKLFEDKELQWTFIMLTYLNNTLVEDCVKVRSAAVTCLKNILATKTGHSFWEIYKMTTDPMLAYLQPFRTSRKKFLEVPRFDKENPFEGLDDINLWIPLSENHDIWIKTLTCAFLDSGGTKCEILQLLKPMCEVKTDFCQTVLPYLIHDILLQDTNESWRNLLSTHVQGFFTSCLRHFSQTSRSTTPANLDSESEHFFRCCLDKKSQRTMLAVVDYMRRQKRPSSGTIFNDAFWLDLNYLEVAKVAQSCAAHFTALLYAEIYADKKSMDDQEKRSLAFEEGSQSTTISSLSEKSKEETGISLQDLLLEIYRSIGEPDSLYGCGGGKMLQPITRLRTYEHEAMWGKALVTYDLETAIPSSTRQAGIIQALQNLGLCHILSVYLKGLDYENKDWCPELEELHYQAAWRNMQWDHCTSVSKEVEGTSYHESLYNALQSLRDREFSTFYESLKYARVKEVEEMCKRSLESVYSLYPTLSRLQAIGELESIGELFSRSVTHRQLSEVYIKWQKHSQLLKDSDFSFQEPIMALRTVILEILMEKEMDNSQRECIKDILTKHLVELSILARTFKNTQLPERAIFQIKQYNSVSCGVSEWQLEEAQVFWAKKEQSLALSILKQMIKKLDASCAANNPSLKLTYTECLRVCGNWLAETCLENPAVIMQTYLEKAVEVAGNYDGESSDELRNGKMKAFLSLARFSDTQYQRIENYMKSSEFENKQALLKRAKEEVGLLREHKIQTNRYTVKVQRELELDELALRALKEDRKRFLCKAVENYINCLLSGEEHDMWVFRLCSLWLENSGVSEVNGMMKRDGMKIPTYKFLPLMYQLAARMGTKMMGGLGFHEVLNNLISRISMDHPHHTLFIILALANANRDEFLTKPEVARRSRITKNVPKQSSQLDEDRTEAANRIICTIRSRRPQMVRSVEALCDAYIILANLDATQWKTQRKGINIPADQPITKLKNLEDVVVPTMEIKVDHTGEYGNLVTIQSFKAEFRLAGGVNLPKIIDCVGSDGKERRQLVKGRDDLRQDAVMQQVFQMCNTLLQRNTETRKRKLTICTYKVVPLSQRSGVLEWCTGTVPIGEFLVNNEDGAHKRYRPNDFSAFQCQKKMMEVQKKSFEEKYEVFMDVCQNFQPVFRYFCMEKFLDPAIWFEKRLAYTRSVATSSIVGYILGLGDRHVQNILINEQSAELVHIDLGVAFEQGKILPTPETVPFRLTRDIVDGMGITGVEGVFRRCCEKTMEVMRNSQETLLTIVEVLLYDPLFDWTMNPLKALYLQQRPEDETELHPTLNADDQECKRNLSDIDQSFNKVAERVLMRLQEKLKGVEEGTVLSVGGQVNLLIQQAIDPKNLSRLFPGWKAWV
UniProt O75348, whole entry, looked up: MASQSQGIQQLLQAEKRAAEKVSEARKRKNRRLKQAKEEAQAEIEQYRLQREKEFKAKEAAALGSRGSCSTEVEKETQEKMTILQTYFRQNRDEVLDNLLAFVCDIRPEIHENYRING
UniProt Q9BZE9, whole entry, looked up: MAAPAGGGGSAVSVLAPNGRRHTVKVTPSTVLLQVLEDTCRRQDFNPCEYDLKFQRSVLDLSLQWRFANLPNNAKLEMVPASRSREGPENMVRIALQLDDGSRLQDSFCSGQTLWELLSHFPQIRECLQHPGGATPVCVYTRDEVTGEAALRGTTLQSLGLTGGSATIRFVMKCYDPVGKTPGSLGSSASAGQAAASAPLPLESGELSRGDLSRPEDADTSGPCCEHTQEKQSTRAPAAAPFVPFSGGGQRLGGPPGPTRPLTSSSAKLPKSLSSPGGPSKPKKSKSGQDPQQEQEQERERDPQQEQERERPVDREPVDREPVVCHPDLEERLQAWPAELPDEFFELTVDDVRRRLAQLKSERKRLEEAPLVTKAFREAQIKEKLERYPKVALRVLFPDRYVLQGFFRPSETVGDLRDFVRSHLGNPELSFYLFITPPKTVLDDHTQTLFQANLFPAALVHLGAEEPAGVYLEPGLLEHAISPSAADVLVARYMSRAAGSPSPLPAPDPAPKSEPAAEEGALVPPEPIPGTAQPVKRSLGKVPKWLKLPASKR
UniProt P54709, whole entry, looked up: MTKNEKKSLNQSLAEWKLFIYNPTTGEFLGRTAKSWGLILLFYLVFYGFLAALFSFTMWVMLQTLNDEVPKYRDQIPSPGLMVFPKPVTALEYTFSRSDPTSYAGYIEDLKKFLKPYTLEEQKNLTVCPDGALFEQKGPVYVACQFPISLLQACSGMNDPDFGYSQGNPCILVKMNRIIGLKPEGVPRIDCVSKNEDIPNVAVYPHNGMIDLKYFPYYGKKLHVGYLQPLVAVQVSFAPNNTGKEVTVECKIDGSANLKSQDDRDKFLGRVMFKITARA
UniProt P00966: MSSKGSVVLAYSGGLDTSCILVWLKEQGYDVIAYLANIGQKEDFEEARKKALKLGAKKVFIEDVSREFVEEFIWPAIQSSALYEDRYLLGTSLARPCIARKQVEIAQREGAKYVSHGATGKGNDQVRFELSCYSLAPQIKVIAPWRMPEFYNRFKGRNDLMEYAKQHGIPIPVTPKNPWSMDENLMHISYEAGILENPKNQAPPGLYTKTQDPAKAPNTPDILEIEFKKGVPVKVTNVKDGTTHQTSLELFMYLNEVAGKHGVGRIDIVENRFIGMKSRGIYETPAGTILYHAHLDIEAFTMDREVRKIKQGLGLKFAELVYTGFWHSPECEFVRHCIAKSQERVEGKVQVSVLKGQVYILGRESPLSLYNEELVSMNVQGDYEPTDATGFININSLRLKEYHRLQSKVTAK
UniProt Q9NT62, whole entry, looked up: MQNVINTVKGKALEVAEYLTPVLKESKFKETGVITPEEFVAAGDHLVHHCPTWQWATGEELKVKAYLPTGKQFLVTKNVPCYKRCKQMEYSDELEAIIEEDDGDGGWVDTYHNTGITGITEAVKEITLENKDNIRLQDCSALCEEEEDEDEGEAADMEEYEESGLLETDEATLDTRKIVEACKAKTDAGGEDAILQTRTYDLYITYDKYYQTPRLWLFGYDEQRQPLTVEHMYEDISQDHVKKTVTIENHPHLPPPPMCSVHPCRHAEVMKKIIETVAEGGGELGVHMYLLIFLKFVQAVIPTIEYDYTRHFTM
UniProt P49407: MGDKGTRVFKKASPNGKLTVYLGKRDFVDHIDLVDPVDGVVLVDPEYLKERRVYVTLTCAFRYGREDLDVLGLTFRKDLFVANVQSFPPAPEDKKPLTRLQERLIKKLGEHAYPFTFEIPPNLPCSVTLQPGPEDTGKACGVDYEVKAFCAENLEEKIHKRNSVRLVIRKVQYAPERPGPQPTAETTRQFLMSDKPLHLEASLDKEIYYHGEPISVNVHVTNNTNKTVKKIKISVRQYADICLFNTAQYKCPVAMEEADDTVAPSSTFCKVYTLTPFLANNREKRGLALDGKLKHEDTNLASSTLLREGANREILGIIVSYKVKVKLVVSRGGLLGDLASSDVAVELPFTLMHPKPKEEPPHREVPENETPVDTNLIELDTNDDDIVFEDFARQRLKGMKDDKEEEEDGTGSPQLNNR

Each target was assayed with CC1Cc2ccccc2N1C(=O)C1CCCN(C1)C(=O)CCl (mixture of isomers) [TRIM25 ligand 11 (diastereomer mixture)] (assay: probe-labelled cysteine peptide fold change vs DMSO (competition) (log2 fold change); higher = less target engagement (more negative = stronger competition)). Conditions: 10 µM; THP-1; incubation time: 4 h.
For “ATAD2_Q6PL18_1246_NNSNTCNIENELEDSRK (UniProt Q6PL18)”, the “probe-labelled cysteine peptide fold change” value was -0.0402.
For “ATOX1_O00244_41_VCIESEHSMDTLLATLKK (UniProt O00244)”, the “probe-labelled cysteine peptide fold change” value was -0.138.
In the case of “ATP6V1B2_P21281_425_DHADVSNQLYACYAIGK (UniProt P21281)”, the “probe-labelled cysteine peptide fold change” value is reported as -0.00783.
For “ATP13A1_Q9HD20_723_FVGFIVVSCPLK (UniProt Q9HD20)”, the “probe-labelled cysteine peptide fold change” value was -0.194.
For “ATP8B4_Q8TF62_734_NFSNGHVVCEK (UniProt Q8TF62)”, the “probe-labelled cysteine peptide fold change” value was 0.0482.
“ATP5F1A_P25705_244_LYCIYVAIGQK (UniProt P25705)” was tested, and the “probe-labelled cysteine peptide fold change” value was -0.282.
In the case of “ASPH_Q12797_685_YSIMHPGTHVWPHTGPTNCR (UniProt Q12797)”, the “probe-labelled cysteine peptide fold change” value is reported as -0.0275.
For “ASMTL_O95671_274_AEAGEAGQATAEAECHR (UniProt O95671)”, the “probe-labelled cysteine peptide fold change” value was -0.103.
For “ATP2C1_P98194_162_DLVPGDTVCLSVGDRVPADLR (UniProt P98194)”, the “probe-labelled cysteine peptide fold change” value was -0.0916.
For “ATP2A2_P16615_447_VGEATETALTCLVEK (UniProt P16615)”, the “probe-labelled cysteine peptide fold change” value was 0.0202.
“ATM_Q13315_2092_DWCPELEELHYQAAWR (UniProt Q13315)” was tested, and the “probe-labelled cysteine peptide fold change” value was 0.0465.
With “ATRN_O75882_1361_PIALEPCFGNK (UniProt O75882)” the “probe-labelled cysteine peptide fold change” value was 0.0504.
“ATP6V1G1_O75348_104_QNRDEVLDNLLAFVCDIRPEIHENYR (UniProt O75348)” was tested, and the “probe-labelled cysteine peptide fold change” value was -0.129.
For “ATP2A2_P16615_875_VSFYQLSHFLQCK (UniProt P16615)”, the “probe-labelled cysteine peptide fold change” value was 0.0301.
With “ATPAF1_Q5TC12_321_CAQNQNK (UniProt Q5TC12)” the “probe-labelled cysteine peptide fold change” value was 0.0122.
For “ATRX_P46100_1242_IKPVTENLVLSSHTGFCQSSGDEALSK (UniProt P46100)”, the “probe-labelled cysteine peptide fold change” value was 0.11.
In the case of “ATP6V1G1_O75348_69_GSCSTEVEK (UniProt O75348)”, the “probe-labelled cysteine peptide fold change” value is reported as -0.239.
In the case of “ATRX_P46100_1531_CPITTK (UniProt P46100)”, the “probe-labelled cysteine peptide fold change” value is reported as -0.0708.
For “ATL3_Q6DD88_371_DIYYNNMEEVCGGEK (UniProt Q6DD88)”, the “probe-labelled cysteine peptide fold change” value was 0.081.
With “ASCC3_Q8N3C0_2101_GKPESCAVTPR (UniProt Q8N3C0)” the “probe-labelled cysteine peptide fold change” value was 0.0662.
For “ATG7_O95352_358+368_CLLLGAGTLGCNVAR (UniProt O95352)”, the “probe-labelled cysteine peptide fold change” value was -0.0153.
For “ATAD2_Q6PL18_1156_TPSTPVACSTPAQLKR (UniProt Q6PL18)”, the “probe-labelled cysteine peptide fold change” value was -0.161.
“ASPH_Q12797_660_FPETTGCR (UniProt Q12797)” was tested, and the “probe-labelled cysteine peptide fold change” value was 0.049.
With “ARSB_P15848_117+121_TGLQHQIIWPCQPSCVPLDEK (UniProt P15848)” the “probe-labelled cysteine peptide fold change” value was 0.0375.
For “ATIC_P31939_287_VCMVYDLYK (UniProt P31939)”, the “probe-labelled cysteine peptide fold change” value was 0.0131.
With “ATP13A1_Q9HD20_711_EALECSLK (UniProt Q9HD20)” the “probe-labelled cysteine peptide fold change” value was 0.114.
In the case of “ASH2L_Q9UBL3_362_YILAEPDPHAPDPEKLELDCWAGKPIPGDLYR (UniProt Q9UBL3)”, the “probe-labelled cysteine peptide fold change” value is reported as -0.107.
“ATL3_Q6DD88_256_NHIHSCFSDVTCFLLPHPGLQVATSPDFDGK (UniProt Q6DD88)” was tested, and the “probe-labelled cysteine peptide fold change” value was 0.0903.
“ASPSCR1_Q9BZE9_325_ERPVDREPVDREPVVCHPDLEER (UniProt Q9BZE9)” was tested, and the “probe-labelled cysteine peptide fold change” value was -0.175.
With “ATP1B3_P54709_191_IDCVSK (UniProt P54709)” the “probe-labelled cysteine peptide fold change” value was -0.07.
In the case of “ASS1_P00966_331_FAELVYTGFWHSPECEFVR (UniProt P00966)”, the “probe-labelled cysteine peptide fold change” value is reported as 0.0803.
“ATP1B1_P05026_213_YNPNVLPVQCTGK (UniProt P05026)” was tested, and the “probe-labelled cysteine peptide fold change” value was 0.107.
For “ATF7IP_Q6VMQ6_78_DKEEVNGIEEICFDPEGSK (UniProt Q6VMQ6)”, the “probe-labelled cysteine peptide fold change” value was -0.0878.
In the case of “ATG3_Q9NT62_264_TVTIENHPHLPPPPMCSVHPCR (UniProt Q9NT62)”, the “probe-labelled cysteine peptide fold change” value is reported as 0.0537.
In the case of “ATM_Q13315_1495_SFSLCCDLLSQVCQTAVTYCK (UniProt Q13315)”, the “probe-labelled cysteine peptide fold change” value is reported as 0.0504.
For “ATM_Q13315_564_MGIEQNMCEVNR (UniProt Q13315)”, the “probe-labelled cysteine peptide fold change” value was -0.2.
For “ATP8B2_P98198_426_CSINGHSYGDVFDVLGHK (UniProt P98198)”, the “probe-labelled cysteine peptide fold change” value was 0.322.
For “ARRB1_P49407_59_RVYVTLTCAFR (UniProt P49407)”, the “probe-labelled cysteine peptide fold change” value was -0.251.
In the case of “ATP2A2_P16615_635_GTAVAICR (UniProt P16615)”, the “probe-labelled cysteine peptide fold change” value is reported as -0.0341.

Same assay, conditions: 50 µM; THP-1; incubation time: 4 h
“ATAD2_Q6PL18_1246_NNSNTCNIENELEDSRK (UniProt Q6PL18)” was tested, and the “probe-labelled cysteine peptide fold change” value was -0.126.
For “ATOX1_O00244_41_VCIESEHSMDTLLATLKK (UniProt O00244)”, the “probe-labelled cysteine peptide fold change” value was -0.166.
In the case of “ATP6V1B2_P21281_425_DHADVSNQLYACYAIGK (UniProt P21281)”, the “probe-labelled cysteine peptide fold change” value is reported as 0.147.
For “ATP13A1_Q9HD20_723_FVGFIVVSCPLK (UniProt Q9HD20)”, the “probe-labelled cysteine peptide fold change” value was -0.0572.
With “ATP8B4_Q8TF62_734_NFSNGHVVCEK (UniProt Q8TF62)” the “probe-labelled cysteine peptide fold change” value was -0.165.
“ATP5F1A_P25705_244_LYCIYVAIGQK (UniProt P25705)” was tested, and the “probe-labelled cysteine peptide fold change” value was 0.146.
In the case of “ASPH_Q12797_685_YSIMHPGTHVWPHTGPTNCR (UniProt Q12797)”, the “probe-labelled cysteine peptide fold change” value is reported as -0.00213.
In the case of “ASMTL_O95671_274_AEAGEAGQATAEAECHR (UniProt O95671)”, the “probe-labelled cysteine peptide fold change” value is reported as -0.158.
In the case of “ATP2C1_P98194_162_DLVPGDTVCLSVGDRVPADLR (UniProt P98194)”, the “probe-labelled cysteine peptide fold change” value is reported as -0.115.
In the case of “ATP2A2_P16615_447_VGEATETALTCLVEK (UniProt P16615)”, the “probe-labelled cysteine peptide fold change” value is reported as 0.0778.
“ATM_Q13315_2092_DWCPELEELHYQAAWR (UniProt Q13315)” was tested, and the “probe-labelled cysteine peptide fold change” value was 0.0307.
With “ATRN_O75882_1361_PIALEPCFGNK (UniProt O75882)” the “probe-labelled cysteine peptide fold change” value was -0.0913.
In the case of “ATP6V1G1_O75348_104_QNRDEVLDNLLAFVCDIRPEIHENYR (UniProt O75348)”, the “probe-labelled cysteine peptide fold change” value is reported as -0.166.
For “ATP2A2_P16615_875_VSFYQLSHFLQCK (UniProt P16615)”, the “probe-labelled cysteine peptide fold change” value was 0.00168.
With “ATPAF1_Q5TC12_321_CAQNQNK (UniProt Q5TC12)” the “probe-labelled cysteine peptide fold change” value was -0.11.
In the case of “ATRX_P46100_1242_IKPVTENLVLSSHTGFCQSSGDEALSK (UniProt P46100)”, the “probe-labelled cysteine peptide fold change” value is reported as -0.37.
With “ATP6V1G1_O75348_69_GSCSTEVEK (UniProt O75348)” the “probe-labelled cysteine peptide fold change” value was -0.244.
In the case of “ATRX_P46100_1531_CPITTK (UniProt P46100)”, the “probe-labelled cysteine peptide fold change” value is reported as -0.241.
With “ATL3_Q6DD88_371_DIYYNNMEEVCGGEK (UniProt Q6DD88)” the “probe-labelled cysteine peptide fold change” value was -0.0128.
With “ASCC3_Q8N3C0_2101_GKPESCAVTPR (UniProt Q8N3C0)” the “probe-labelled cysteine peptide fold change” value was 0.0471.
With “ATG7_O95352_358+368_CLLLGAGTLGCNVAR (UniProt O95352)” the “probe-labelled cysteine peptide fold change” value was 0.1.
For “ATAD2_Q6PL18_1156_TPSTPVACSTPAQLKR (UniProt Q6PL18)”, the “probe-labelled cysteine peptide fold change” value was -0.271.
For “ASPH_Q12797_660_FPETTGCR (UniProt Q12797)”, the “probe-labelled cysteine peptide fold change” value was -0.0334.
“ARSB_P15848_117+121_TGLQHQIIWPCQPSCVPLDEK (UniProt P15848)” was tested, and the “probe-labelled cysteine peptide fold change” value was 0.126.
With “ATIC_P31939_287_VCMVYDLYK (UniProt P31939)” the “probe-labelled cysteine peptide fold change” value was 0.0482.
For “ATP13A1_Q9HD20_711_EALECSLK (UniProt Q9HD20)”, the “probe-labelled cysteine peptide fold change” value was 0.226.
“ASH2L_Q9UBL3_362_YILAEPDPHAPDPEKLELDCWAGKPIPGDLYR (UniProt Q9UBL3)” was tested, and the “probe-labelled cysteine peptide fold change” value was -0.123.
In the case of “ATL3_Q6DD88_256_NHIHSCFSDVTCFLLPHPGLQVATSPDFDGK (UniProt Q6DD88)”, the “probe-labelled cysteine peptide fold change” value is reported as 0.00582.
In the case of “ASPSCR1_Q9BZE9_325_ERPVDREPVDREPVVCHPDLEER (UniProt Q9BZE9)”, the “probe-labelled cysteine peptide fold change” value is reported as -0.252.
“ATP1B3_P54709_191_IDCVSK (UniProt P54709)” was tested, and the “probe-labelled cysteine peptide fold change” value was 0.0783.
For “ASS1_P00966_331_FAELVYTGFWHSPECEFVR (UniProt P00966)”, the “probe-labelled cysteine peptide fold change” value was 0.0505.
For “ATP1B1_P05026_213_YNPNVLPVQCTGK (UniProt P05026)”, the “probe-labelled cysteine peptide fold change” value was 0.0303.
With “ATF7IP_Q6VMQ6_78_DKEEVNGIEEICFDPEGSK (UniProt Q6VMQ6)” the “probe-labelled cysteine peptide fold change” value was -0.0558.
With “ATG3_Q9NT62_264_TVTIENHPHLPPPPMCSVHPCR (UniProt Q9NT62)” the “probe-labelled cysteine peptide fold change” value was 0.153.
For “ATM_Q13315_1495_SFSLCCDLLSQVCQTAVTYCK (UniProt Q13315)”, the “probe-labelled cysteine peptide fold change” value was -0.367.
“ATM_Q13315_564_MGIEQNMCEVNR (UniProt Q13315)” was tested, and the “probe-labelled cysteine peptide fold change” value was -0.34.
With “ATP8B2_P98198_426_CSINGHSYGDVFDVLGHK (UniProt P98198)” the “probe-labelled cysteine peptide fold change” value was 0.326.
For “ARRB1_P49407_59_RVYVTLTCAFR (UniProt P49407)”, the “probe-labelled cysteine peptide fold change” value was -0.0834.
For “ATP2A2_P16615_635_GTAVAICR (UniProt P16615)”, the “probe-labelled cysteine peptide fold change” value was 0.163.
